Source: publication PMC9616960
These are yes or no findings as the source states them, for the method shown. In cells and extracts the contact can be indirect. These calls come from enrichment with a bait or labelling near it, and not all partners need be listed.

T1: Podocin (mouse (endogenous in mouse glomeruli)) (UniProt Q91X05)
T1 sequence: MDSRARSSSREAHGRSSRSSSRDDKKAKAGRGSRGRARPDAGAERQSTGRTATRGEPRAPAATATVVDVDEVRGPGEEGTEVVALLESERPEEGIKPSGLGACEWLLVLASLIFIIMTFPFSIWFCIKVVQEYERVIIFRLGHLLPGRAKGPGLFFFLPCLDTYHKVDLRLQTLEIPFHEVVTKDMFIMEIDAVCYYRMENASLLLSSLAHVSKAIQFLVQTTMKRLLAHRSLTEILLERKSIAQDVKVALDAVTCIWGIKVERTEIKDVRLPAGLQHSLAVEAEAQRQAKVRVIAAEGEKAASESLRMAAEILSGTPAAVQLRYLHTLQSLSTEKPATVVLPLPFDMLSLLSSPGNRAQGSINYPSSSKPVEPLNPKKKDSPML

B1: Solute carrier family 22 member 19 (protein, UniProt Q8VCA0 1-551)
chain: MAFQDLIIQIGSLGRFQILHMIFVLICHALSAPHTLLENFTAAIPSHRCWVPILDNDTASDNGSRILSQDDLLRISIPLDSNLRPDKCRRYIQPQWHLLHLNGTFPTVTEPDTEPCVDGWVYDQSTFLSTTVTQWDLVCGSQALNSVAKFIYMTGIFIGYIMGGHLSDKFGRKLIFTCSLLKMAITETCVAFAPSFLIYCSLRFLSGIFSSTLRTNSALLILEWTSPKFQALVMALIFIASGVGQTLLGGLAFAFRNWHHLQLALSVPMFLLLIPTRWLSESARWLIMANKPQKSLKELKKAACVNRIKNSGDALTLEVVKTIMKEELEAAQTKPSPLDLFRTPNLRKRICLLSFVRFVSVMSLLGLLINIQYLSNNVFLLQCLYGVVCIPANVLGNFSMNYMGRRMTQLIFMSVLGISILAVVFLPQEMQILRVFLSTLGGAISSASITSTLVHANELVPTIIRATALGVVGIAGSAGGALSPLLMILTTYSASLPWIIYGILPFLGGLVALLLPETKNQPLPDSIQDIENKRKSSKEAKKDVVAKVTPL
B2: Solute carrier family 13 member 3 (protein, UniProt Q91Y63 1-600)
chain: MAALAALAKKVWSARRLLVLLLVPLALLPILFALPPKEGRCLYVILLMAVYWCTEALPLSVTALLPIILFPFMGILPSSKVCPQYFLDTNFLFLSGLIMASAIEEWNLHRRIALKVLMLVGVQPARLILGMMVTTSFLSMWLSNTASTAMMLPIASAILKSLFGQREARKDLPREGDESTAAVQGNGLRTVPTEMQFLASSEGGHTEDAEAPMELPDDSKEEEHRRNIWKGFLISIPYSASIGGTATLTGTAPNLILLGQLKSFFPQCDVVNFGSWFIFAFPLMLLFLLVGWLWISFLYGGMSWRSWRKKKSKIRADAEDQAKAVIQEEFQNLGPIKFAEQAVFILFCTFAILLFSRDPKFIPGWASLFAPGFVSDAVTGVAIVTILFFFPSQKPSLKWWFDFKAPNSETEPLLSWKKAQETVPWNIILLLGGGFAMAKGCEESGLSAWIGGQLHPLEHVPPLLAVLLITVVIAFFTEFASNTATIIIFLPVLAELAIRLHVHPLYLMIPGTVGCSYAFMLPVSTPPNSIAFSTGHLLVKDMVRTGLLMNLMGVLLLSLAMNTWAQTIFQLGTFPDWANTHAANATALPPALTNNTVQTF
B3: Solute carrier family 5 member 11 (protein, UniProt Q8K0E3 1-673)
chain: MESATISPQPPQSDSLEAFPQKSMEPADIAVLVLYFLFVLAVGLWSTVRTKRDTVKGYFLAGGDMVWWPVGASLFASNVGSGHFIGLAGSGAAVGISVAAYELNGLFSVLMLAWVFLPIYIAGQVTTMPEYLRRRFGGNRISITLAVLYLFIYIFTKISVDMYAGAIFIQQSLHLDLYLAIVGLLAITALYTVAGGLAAVIYTDALQTVIMLIGAFILMGYSFAAVGGMEGLKDQYFLALASNRSENSSCGLPREDAFHIFRDPLTSDLPWPGILFGMSIPSLWYWCTDQVIVQRSLAAKNLSHAKGGSLMAAYLKVLPLFLMVFPGMVSRVLFPDQVACAHPDICQRVCSNPSGCSDIAYPKLVLELLPTGLRGLMMAVMVAALMSSLTSIFNSASTIFTMDLWNHIRPRASERELMIVGRIFVFALVLVSILWIPIVQASQGGQLFIYIQSISSYLQPPVAMVFIMGCFWKRTNEKGAFSGLILGLLLGLVRLILDFVYAQPRCDQPDDRPAVVKDVHYLYFSMILSFTTLITVVTVSWFTETPSKEMVSRLTWFTRHEPVAQKDSAPPETPLSLTLSQNGTTEAPGTSIQLETVQESTTKACGDGVSPRHSKVVRAILWLCGMEKNKEEPPSKAEPVIVSLEENPLVKTLLDVNCIVCISCAIFLWGYFA

Each binder was assayed against T1, Podocin (mouse (endogenous in mouse glomeruli)) (assay: affinity purification with mass spectrometry; two anti-Podocin ABs immobilised on magnetic beads, two hours with CL-47 or CL-91 solubilisates of glomerular membrane fractions of wildtype mice; control: Podocin knockout mice; eluates by nano-LC-MS/MS; specific: tnR >0.25 with both ABs in either of two solubilisation conditions).

binding, binds:
B1
B2
B3
